# Assay results: PubChem BioAssay AID1347076 (National Center for Advancing Translational Sciences (NCATS), 2019)
# The whole screen tested about 400,000 compounds, of which about 13,000 (3.2%) were called active. The inconclusive results got no clear call from the source; some entries with a clear call stand among them for comparison. Calls follow the shape of the dose curve; as a rule, active = well fitted cell-killing curve with a large enough effect; inconclusive = small, poorly fitted or top-dose-only effect, or effect the other way; inactive = flat fitted curve, though single readings scatter. Potencies beside an inconclusive call are fits to weak or partial responses and may not hold up. Some compounds were tested as several samples or in several runs, with calls that do not always agree.
# Assay: qHTS assay for MDR1-selective chemotherapeutics: Primary screen using the drug-selected MDR subline cells KB-V1; also: nearly all actives have a fitted effect of over 60% in size
# Details: KB-V1 MDR cells viability, CellTiter-Glo, 72 h; series mostly up to 46.1 µM
# In short: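 qHTS viability screen in drug-selected KB-V1 MDR cells: 72 h compound treatment at 37 degrees C, ATP luminescence end point.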
# Potency is read from the fitted curve at half-maximal effect.
row,SMILES,Potency
1,CN(Cc1ccccc1)CC(O)COc1ccc(CNCc2nccn2C)cc1 (stereo not drawn),inactive
2,Cc1nnn(C23C[C@@H]4C[C@@H](CC(C(=O)N5CCN(c6ccccc6)CC5)(C4)C2)C3)n1,"inconclusive: 2.06 µM [cytotoxic, full curve]"
3,COc1cccc(CN(C)C(=O)C(Cc2ccccc2)NC(=O)c2ccccc2)c1OC (stereo not drawn),"inconclusive: 8.2 µM [cytotoxic, partial curve, poor fit]"
4,Cn1c(CN2CCCCC2)nc2cc(NC(=O)c3ccccc3Cl)ccc21,active: 14.6 µM
5,O=C(Nc1ncc(Cc2ccc(C(F)(F)F)cc2)s1)c1ccc(-c2cccc([N+](=O)[O-])c2)o1,active: 4.61 µM
6,Cc1ccc(C(CC(=O)NCc2ccco2)c2ccc(OC(C)C)cc2)cc1 (stereo not drawn),"inconclusive: 23.1 µM [cytotoxic, partial curve, poor fit]"
7,CCCCNC(=O)CCCn1c(=O)c2ccccc2n(Cc2cccc(Cl)c2)c1=O,inactive
8,Cc1ccc(C(=O)N2CCN(c3ccc(NC(=O)c4ccc(Br)o4)cc3)CC2)cc1,inactive
9,COc1ccc(C2=NOC(C(=O)NCc3ccco3)C2)cc1OC (stereo not drawn),"inconclusive: 1.3 µM [cytotoxic, partial curve, poor fit]"
10,CCCCc1c(C)nc2c(-c3ccc(OC)cc3)c(C)[nH]n2c1=O,"inconclusive: 29.1 µM [cytotoxic, single point]"
11,Cc1cccc(NC(=O)Nc2cc(C)cc(C)n2)c1,"inconclusive: 23.1 µM [rising, single point]"
12,O=C1c2ccccc2C(=O)N1CCCc1nc2ccccc2c(=O)n1Cc1ccco1,"inconclusive: 9.2 µM [cytotoxic, partial curve]"
13,COc1ccc(/C=N/NC(=O)c2ccc(-c3ccccc3)cc2)cc1O,"inconclusive: 23.1 µM [cytotoxic, single point]"
14,Cc1ccc(Cc2cnc(NC(=O)/C(C#N)=C/c3ccc(-c4cccc([N+](=O)[O-])c4)o3)s2)cc1,active: 18.4 µM
15,Cc1[nH]n(-c2ccc(Br)cc2)c(=O)c1/C=N/NC(=O)c1ccccc1,active: 1.3 µM
16,CC(C)(C)N=C1NC(=NC(C)(C)C)c2ccccc21,"inconclusive: 20.6 µM [cytotoxic, single point]"
17,Cc1ccc(S(=O)(=O)c2cc3ccccc3oc2=O)cc1,inactive
18,COc1ccc(Nc2ccc(S(=O)(=O)N3CCCCCC3)cc2[N+](=O)[O-])cc1,active: 2.91 µM
19,CC1=NNC(=O)C1Cc1ccccc1 (stereo not drawn),"inconclusive: 10.3 µM [rising, partial curve, poor fit]"
20,Cc1ccc(C)c(S(=O)(=O)N2CCN(CC(=O)Nc3ccc([N+](=O)[O-])cc3)CC2)c1,"inconclusive: 16.4 µM [cytotoxic, partial curve, poor fit]"
21,O=C1/C(=C/c2ccncc2)SC(=S)N1C1CCS(=O)(=O)C1 (stereo not drawn),"inconclusive: 20.6 µM [cytotoxic, partial curve, poor fit]"
22,O=C(C1CCN(S(=O)(=O)Cc2ccccc2)CC1)N1CCN(c2ccccc2)CC1,inactive
23,CCOC(=O)c1cccc(NS(=O)(=O)c2ccc(-c3cnc(C4CC4)o3)cc2)c1,"inconclusive: 20.6 µM [cytotoxic, single point]"
24,NC(=O)c1nc(Nc2ccccc2)sc1NC(=O)c1ccccc1Br,inactive

row,SMILES,Potency
1,Cc1cccn2c(CNCC3(c4ccccc4)CCCC3)c(C(=O)N3CCOCC3)nc12,"inconclusive: 23.1 µM [cytotoxic, single point]"
2,Cc1ccc(/C=C(\C#N)C(=O)NCC2CCCO2)o1 (stereo not drawn),inactive
3,Cc1ccc(/C=N/NC(=O)c2ccccc2OCc2ccc(F)cc2)o1,"inconclusive: 29.1 µM [rising, single point]"
4,COc1cc(OC)cc(-c2cc3nc(C)c(CCC(=O)NCc4ccc(Cl)cc4)c(C)n3n2)c1,inactive
5,COC(=O)c1cccc(NC(=O)/C=C/c2ccc([N+](=O)[O-])cc2)c1,inactive
6,Cc1nnc(NC(=O)c2ccc(S(=O)(=O)N3CC(C)OC(C)C3)cc2)o1 (stereo not drawn),"inconclusive: 16.4 µM [cytotoxic, single point]"
7,Cc1nn(CC(=O)N(C)C2CCS(=O)(=O)C2)c(C)c1S(=O)(=O)N(C)C (stereo not drawn),inactive
8,CCC(CC)CC1CN2CCc3cc(OC)c(OC)cc3C2CC1(O)CC (stereo not drawn),inactive
9,COC(=O)[C@H](Cc1ccccc1)NC(=O)NCCc1ccc(S(N)(=O)=O)cc1,inactive
10,C=CCOn1c(=O)c(-c2ccc(Br)cc2)[n+]([O-])c2ccccc21,inactive
11,c1cncc(-c2noc(-c3ccc4ccccc4c3)n2)c1,"inconclusive: 0.58 µM [rising, full curve, poor fit]"
12,COc1ccc(S(=O)(=O)N2N=C(C)Oc3ccccc3C2=O)cc1,active: 3.66 µM
13,CCOC(=O)c1c(NC(=O)CN2CCCc3ccccc32)sc(C(C)=O)c1C,active: 4.11 µM
14,COc1ccc(OC)c(CNC(=O)C2CCN(c3nc4ccccc4nc3C(F)(F)F)CC2)c1,inactive
15,Cc1ccc(C)n1-c1nnc(N2CCCC(C(=O)NCc3cccc(F)c3)C2)s1 (stereo not drawn),inactive
16,Clc1ccc(C(c2ccccc2)c2c[nH]c3ccccc23)s1 (stereo not drawn),inactive
17,CCOc1ccc(Cl)cc1S(=O)(=O)N1CCC(C(=O)NCC2CCCO2)CC1 (stereo not drawn),"inconclusive: 16.4 µM [cytotoxic, single point]"
18,CCOC(=O)c1ccc(N/C=C/C(=O)C(C)(C)C)cc1,inactive
19,COc1cc(S(=O)(=O)N2CCC(O)(c3cccc(C(F)(F)F)c3)CC2)ccc1-n1cnnn1,"inconclusive: 20.6 µM [cytotoxic, partial curve]"
20,Cc1ccc(C)c(S(=O)(=O)N2CCN(C(=O)c3cc(-c4cccs4)nn3-c3ccccc3)CC2)c1,active: 6.51 µM
21,O=C(C1CC1)N1CCC(c2nc(-c3ccc(S(=O)(=O)N4CCCC4)cc3)no2)CC1,"inconclusive: 9.2 µM [cytotoxic, partial curve]"
22,CCCc1nc2ccc(C)cn2c1Cc1ccsc1,inactive
23,O=C(O)c1cccc(N2C(=O)CSC2=S)c1,inactive
24,CC(C)CCNC(=O)c1ccc2c(SCC(=O)O)c3c(nc2c1)CCC3,"inconclusive: 20.6 µM [rising, single point]"

# Some of the entries so far, as tab-separated lines.
row	SMILES	Potency
19	COc1cc(S(=O)(=O)N2CCC(O)(c3cccc(C(F)(F)F)c3)CC2)ccc1-n1cnnn1	inconclusive: 20.6 µM [cytotoxic, partial curve]
20	Cc1ccc(C)c(S(=O)(=O)N2CCN(C(=O)c3cc(-c4cccs4)nn3-c3ccccc3)CC2)c1	active: 6.51 µM
21	O=C(C1CC1)N1CCC(c2nc(-c3ccc(S(=O)(=O)N4CCCC4)cc3)no2)CC1	inconclusive: 9.2 µM [cytotoxic, partial curve]
23	O=C(O)c1cccc(N2C(=O)CSC2=S)c1	inactive
